In the supplement of paper PMC9015667:
The other results are listed elsewhere or left out. Most values come without repeats; read them as rough.

How the values were obtained:
Assay in all cases: reduction in cell viability relative to untreated/vehicle; higher = more growth inhibition
Settings in all cases: 200 nM; 72 h
[1] = tested on: M229P (parental melanoma line)
[2] = tested on: M229R (matched melanoma line resistant to BRAF inhibitors)
[3] = tested on: M238P (parental melanoma line)
[4] = tested on: M238R (matched melanoma line resistant to BRAF inhibitors)
[5] = tested on: M249P (parental melanoma line)
[6] = tested on: M249R (matched melanoma line resistant to BRAF inhibitors)
[7] = tested on: UACC62P (parental melanoma line)
[8] = tested on: UACC62R (matched melanoma line resistant to BRAF inhibitors)

SMILES	reduction in cell viability [1] [%]	reduction in cell viability [2] [%]	reduction in cell viability [3] [%]	reduction in cell viability [4] [%]	reduction in cell viability [5] [%]	reduction in cell viability [6] [%]	reduction in cell viability [7] [%]	reduction in cell viability [8] [%]
OCCNC1CCCc2c1[nH]c1ccc(-c3ccccc3)cc21 (configuration not stated)	< 0	20.1	< 0	< 0	< 0	< 0	< 0	< 0
N[C@@H]1CONC1=O [D-Cycloserine]	< 0	0.01	< 0	< 0	< 0	1.19	< 0	< 0
Cc1ccccc1N1C(=O)c2cc(S(N)(=O)=O)c(Cl)cc2NC1C (configuration not stated) [Metolazone]	< 0	< 0	< 0	< 0	0.57	< 0	< 0	< 0
O=C(c1ccc(C(=O)N2CCC(N3CCCC3)CC2)c(Nc2ccccc2)c1)N1CCC(N2CCCC2)CC1	< 0	< 0	< 0	< 0	< 0	< 0	< 0	< 0
COc1cc([C@@H]2c3cc4c(cc3[C@@H](O[C@@H]3O[C@@H]5CO[C@@H](c6cccs6)O[C@H]5[C@H](O)[C@H]3O)[C@H]3COC(=O)[C@H]23)OCO4)cc(OC)c1O [Teniposide]	< 0	6.14	51.5	25.4	33.9	45.7	24.4	48.9
COc1ccc(-c2cc(=O)c3c(O)cc(O[C@@H]4O[C@H](CO[C@@H]5O[C@@H](C)[C@H](O)[C@@H](O)[C@H]5O)[C@@H](O)[C@H](O)[C@H]4O)cc3o2)cc1O [Diosmin]	< 0	< 0	< 0	< 0	< 0	< 0	< 0	< 0
Nc1cccc(S(=O)(=O)N2CCCN(S(=O)(=O)c3ccc4c(c3)OCCO4)CC2)c1	< 0	< 0	< 0	< 0	< 0	< 0	< 0	< 0
O=c1cc(-c2ccc(O)cc2)oc2cc(O)cc(O)c12 [Apigenin]	< 0	< 0	< 0	< 0	< 0	< 0	< 0	< 0
CC(C)(C)C(=O)Oc1ccc2c(c1)nc(NC(=O)c1cccc([N+](=O)[O-])c1)n2CCCO	< 0	< 0	< 0	< 0	< 0	< 0	< 0	< 0
COc1ccc(-c2nc(N3CCOCC3)c3sc(CN(C)c4ncc(C(=O)NO)cn4)cc3n2)cn1	< 0	< 0	< 0	< 0	< 0	< 0	< 0	< 0
CCCCCOC(=O)Nc1nc(=O)n([C@@H]2O[C@H](C)[C@@H](O)[C@H]2O)cc1F [Capecitabine]	< 0	< 0	< 0	< 0	< 0	< 0	< 0	< 0
O=C1CCCC(=O)C1C(=O)c1ccc(C(F)(F)F)cc1[N+](=O)[O-] [Nitisinone]	< 0	< 0	< 0	< 0	< 0	< 0	< 0	< 0
CNC[C@H](O)[C@@H](O)[C@H](O)[C@H](O)CO [Meglumine]	< 0	< 0	< 0	< 0	< 0	< 0	< 0	< 0
COc1ccc2c(Oc3ccc(NC(=O)c4c(C)n(CC(C)(C)O)n(-c5ccccc5)c4=O)nc3)ccnc2c1	< 0	< 0	< 0	< 0	< 0	< 0	< 0	< 0
CNC(=O)c1ccc(-c2cnc3ncc(Cc4ccc5ncccc5c4)n3n2)cc1F	< 0	< 0	< 0	< 0	< 0	< 0	< 0	< 0
c1cncc(CN2CCC(n3ncc4c(N5CCOCC5)nc(-c5ccc6[nH]ccc6c5)nc43)CC2)c1	< 0	9.46	< 0	< 0	< 0	2.47	< 0	< 0
COc1cc(C[C@@H](CO)[C@H](CO)Cc2ccc(O)c(OC)c2)ccc1O [Secoisolariciresinol]	< 0	< 0	< 0	< 0	< 0	< 0	< 0	< 0

SMILES	reduction in cell viability [1] [%]	reduction in cell viability [2] [%]	reduction in cell viability [3] [%]	reduction in cell viability [4] [%]	reduction in cell viability [5] [%]	reduction in cell viability [6] [%]	reduction in cell viability [7] [%]	reduction in cell viability [8] [%]
COc1cccc(N(C)C(=S)Oc2ccc3c(c2)CCCC3)n1 [Liranaftate]	< 0	< 0	< 0	< 0	< 0	< 0	< 0	< 0
C[C@]12CC[C@@H]3c4ccc(O)cc4CC[C@H]3[C@@H]1[C@@H](O)[C@@H](O)[C@@H]2O [Estetrol]	< 0	< 0	< 0	< 0	< 0	< 0	< 0	< 0
CC[C@]1(O)C[C@@H]2CN(CCc3c([nH]c4ccccc34)[C@@](C(=O)OC)(c3cc4c(cc3OC)N(C)[C@H]3[C@@](O)(C(=O)OC)[C@H](OC(C)=O)[C@]5(CC)C=CCN6CC[C@]43[C@@H]65)C2)C1 [Vinblastine]	33.5	46.7	57	55.5	45.3	39.1	44.5	72.9
COc1cc(N2CCC(C(N)=O)CC2)ccc1Nc1nc(N)c(Cl)c(Nc2ccccc2S(=O)(=O)C(C)C)n1	< 0	< 0	< 0	< 0	< 0	< 0	< 0	< 0
COC(=O)c1ccc2c(c1)NC(=O)/C2=C(\Nc1ccc(N(C)C(=O)CN2CCN(C)CC2)cc1)c1ccccc1 [Nintedanib (BIBF 1120)]	< 0	< 0	< 0	< 0	< 0	< 0	< 0	< 0
Cc1cn(-c2cc(NC(=O)c3ccc(C)c(Nc4nccc(-c5cccnc5)n4)c3)cc(C(F)(F)F)c2)cn1 [Nilotinib (AMN-107)]	< 0	< 0	< 0	< 0	< 0	< 0	< 0	< 0
C=C1/C(=C\C=C2/CCC[C@]3(C)[C@@H]([C@H](C)/C=C/[C@H](C)C(C)C)CC[C@@H]23)C[C@@H](O)C[C@@H]1O [1-alpha-Hydroxyergocalciferol]	< 0	< 0	< 0	< 0	16.6	< 0	7.83	< 0
COc1cc(OC)cc(-c2ccc3ncc4ccc(=O)n(-c5ccc(N6CCNCC6)c(C(F)(F)F)c5)c4c3c2)c1	< 0	14.4	20.2	4.38	< 0	11.9	< 0	6.65
CS(=O)(=O)c1ccc([C@@H](O)[C@@H](CO)NC(=O)C(Cl)Cl)cc1 [Thiamphenicol]	< 0	< 0	< 0	< 0	< 0	< 0	< 0	< 0
Cc1cn([C@@H]2C[C@@H](O)[C@H](CO)O2)c(=O)[nH]c1=O [Telbivudine]	< 0	< 0	< 0	< 0	< 0	< 0	13.8	< 0
Cc1ccc([N+](=O)[O-])cc1S(=O)(=O)N(C)/N=C/c1cnc2ccc(Br)cn12	76.1	68.1	87.1	72.7	90.6	90.4	92.5	86.9
Nc1ccn([C@H]2CC[C@@H](CO)O2)c(=O)n1 [Zalcitabine]	< 0	< 0	2.59	< 0	< 0	< 0	7.54	< 0
O=S(=O)(N=Cc1c(O)ccc2ccccc12)c1cccs1	< 0	< 0	< 0	< 0	< 0	< 0	4.98	< 0
OC(CN1CCN(c2cccc(Cl)c2)CC1)C(c1ccccc1)c1ccccc1 (configuration not stated)	< 0	< 0	< 0	< 0	< 0	< 0	< 0	< 0
O=C(O)[C@]1(Cc2cccc(Nc3nccs3)n2)CC[C@@H](Oc2cccc(Cl)c2F)CC1	< 0	< 0	< 0	< 0	< 0	< 0	< 0	< 0
Cn1cnc([N+](=O)[O-])c1Sc1ncnc2[nH]cnc12 [Azathioprine]	13.3	30.6	0.61	< 0	< 0	< 0	29.4	12.9
CC1(C)O[C@@H]2C[C@H]3[C@@H]4C[C@H](F)C5=CC(=O)C=C[C@]5(C)[C@@]4(F)[C@@H](O)C[C@]3(C)[C@]2(C(=O)CO)O1 [Fluocinolone acetonide]	< 0	2.26	< 0	< 0	< 0	< 0	< 0	< 0

Two entries drawn at random from the list so far:
SMILES	reduction in cell viability [1] [%]	reduction in cell viability [2] [%]	reduction in cell viability [3] [%]	reduction in cell viability [4] [%]	reduction in cell viability [5] [%]	reduction in cell viability [6] [%]	reduction in cell viability [7] [%]	reduction in cell viability [8] [%]
CC1(C)O[C@@H]2C[C@H]3[C@@H]4C[C@H](F)C5=CC(=O)C=C[C@]5(C)[C@@]4(F)[C@@H](O)C[C@]3(C)[C@]2(C(=O)CO)O1 [Fluocinolone acetonide]	< 0	2.26	< 0	< 0	< 0	< 0	< 0	< 0
COc1cc([C@@H]2c3cc4c(cc3[C@@H](O[C@@H]3O[C@@H]5CO[C@@H](c6cccs6)O[C@H]5[C@H](O)[C@H]3O)[C@H]3COC(=O)[C@H]23)OCO4)cc(OC)c1O [Teniposide]	< 0	6.14	51.5	25.4	33.9	45.7	24.4	48.9
